These are yes or no findings as the source states them, for the method shown. Binding seen in cells or lysates may run through a third protein. Some binding calls cover weakened binding; strength is not graded here. Where a sequence is shown, tags or fusion partners need not be part of it.
Molecular target: T1, FLAG-tagged kidney injury molecule 1 (KIM-1) (UniProt Q5QNS5)
T1 sequence: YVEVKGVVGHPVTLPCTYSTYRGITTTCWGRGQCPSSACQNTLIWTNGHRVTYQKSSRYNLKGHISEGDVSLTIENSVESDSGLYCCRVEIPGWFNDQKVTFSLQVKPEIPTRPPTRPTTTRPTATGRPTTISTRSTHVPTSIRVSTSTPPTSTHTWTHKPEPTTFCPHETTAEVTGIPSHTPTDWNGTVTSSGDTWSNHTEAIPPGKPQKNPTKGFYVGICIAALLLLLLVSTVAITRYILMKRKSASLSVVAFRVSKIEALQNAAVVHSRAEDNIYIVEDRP
Test: co-IP; AIM or sAIM expression vector co-transfected with FLAG-tagged KIM-1 expression vector in HEK293T cells; immunoprecipitation

B1: AIM expressed with KIM-1-FLAG in HEK293T cells (protein, UniProt Q9QWK4 22-352)
chain: ESPTKVQLVGGAHRCEGRVEVEHNGQWGTVCDDGWDRRDVAVVCRELNCGAVIQTPRGASYQPPASEQRVLIQGVDCNGTEDTLAQCELNYDVFDCSHEEDAGAQCENPDSDLLFIPEDVRLVDGPGHCQGRVEVLHQSQWSTVCKAGWNLQVSKVVCRQLGCGRALLTYGSCNKNTQGKGPIWMGKMSCSGQEANLRSCLLSRLENNCTHGEDTWMECEDPFELKLVGGDTPCSGRLEVLHKGSWGSVCDDNWGEKEDQVVCKQLGCGKSLHPSPKTRKIYGPGAGRIWLDDVNCSGKEQSLEFCRHRLWGYHDCTHKEDVEVICTDFDV
  binding: binds

Reference: PMC5144010
